From the supplement of paper PMC10849652
The list shows a part of the results.

Chains of the proteins cited; added tags and fusions are not shown. Lines headed by an entry give the natural chain unless they say otherwise; changes in a name come on top.
UniProt P18085: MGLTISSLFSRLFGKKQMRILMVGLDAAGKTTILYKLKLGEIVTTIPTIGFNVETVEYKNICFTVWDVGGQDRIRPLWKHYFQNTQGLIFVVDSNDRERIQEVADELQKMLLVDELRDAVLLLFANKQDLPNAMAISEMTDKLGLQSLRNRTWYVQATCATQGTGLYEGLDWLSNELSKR
UniProt P84085: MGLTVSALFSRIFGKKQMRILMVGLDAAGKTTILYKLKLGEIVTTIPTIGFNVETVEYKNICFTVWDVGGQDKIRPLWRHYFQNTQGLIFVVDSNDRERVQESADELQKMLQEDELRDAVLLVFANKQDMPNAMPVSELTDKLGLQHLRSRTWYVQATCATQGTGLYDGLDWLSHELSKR
UniProt Q9NZN5: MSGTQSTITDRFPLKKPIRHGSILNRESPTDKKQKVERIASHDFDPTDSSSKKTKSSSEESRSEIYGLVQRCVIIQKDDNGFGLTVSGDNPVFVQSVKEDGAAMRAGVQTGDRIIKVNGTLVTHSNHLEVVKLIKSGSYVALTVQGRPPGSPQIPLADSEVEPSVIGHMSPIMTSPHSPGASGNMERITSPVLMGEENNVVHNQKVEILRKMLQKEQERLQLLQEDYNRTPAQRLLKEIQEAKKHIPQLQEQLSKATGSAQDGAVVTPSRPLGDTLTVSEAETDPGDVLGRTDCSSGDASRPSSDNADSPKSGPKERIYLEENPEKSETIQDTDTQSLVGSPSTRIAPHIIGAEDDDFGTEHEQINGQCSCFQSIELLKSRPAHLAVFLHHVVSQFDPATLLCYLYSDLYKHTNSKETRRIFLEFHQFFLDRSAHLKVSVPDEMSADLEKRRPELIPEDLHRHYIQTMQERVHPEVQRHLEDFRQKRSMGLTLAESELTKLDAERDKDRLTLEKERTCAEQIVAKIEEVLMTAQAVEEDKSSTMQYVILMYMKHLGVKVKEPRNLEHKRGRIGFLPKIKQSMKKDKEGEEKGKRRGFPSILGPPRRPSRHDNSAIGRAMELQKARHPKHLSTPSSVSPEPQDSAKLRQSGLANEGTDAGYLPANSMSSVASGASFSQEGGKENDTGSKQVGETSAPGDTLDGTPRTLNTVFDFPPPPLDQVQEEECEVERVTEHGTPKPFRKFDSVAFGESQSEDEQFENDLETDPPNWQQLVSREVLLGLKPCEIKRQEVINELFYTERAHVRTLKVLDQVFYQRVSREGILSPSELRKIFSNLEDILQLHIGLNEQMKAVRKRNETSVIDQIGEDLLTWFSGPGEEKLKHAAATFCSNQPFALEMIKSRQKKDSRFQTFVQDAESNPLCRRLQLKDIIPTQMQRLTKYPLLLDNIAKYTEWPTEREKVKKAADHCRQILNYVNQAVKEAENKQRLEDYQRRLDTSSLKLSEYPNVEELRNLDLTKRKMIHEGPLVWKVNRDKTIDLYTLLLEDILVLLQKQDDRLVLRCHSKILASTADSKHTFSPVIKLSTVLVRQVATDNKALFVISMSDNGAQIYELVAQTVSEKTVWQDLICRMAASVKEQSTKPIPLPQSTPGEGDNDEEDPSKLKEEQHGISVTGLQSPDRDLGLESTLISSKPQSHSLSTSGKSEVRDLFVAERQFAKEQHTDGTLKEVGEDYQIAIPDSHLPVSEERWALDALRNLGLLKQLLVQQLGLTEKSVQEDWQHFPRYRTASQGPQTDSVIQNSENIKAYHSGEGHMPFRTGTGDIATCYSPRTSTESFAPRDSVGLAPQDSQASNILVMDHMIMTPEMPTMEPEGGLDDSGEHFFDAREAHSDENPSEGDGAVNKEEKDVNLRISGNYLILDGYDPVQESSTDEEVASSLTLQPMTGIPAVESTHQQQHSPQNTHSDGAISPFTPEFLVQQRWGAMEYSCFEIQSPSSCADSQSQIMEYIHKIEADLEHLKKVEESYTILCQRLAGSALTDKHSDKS
UniProt Q07960: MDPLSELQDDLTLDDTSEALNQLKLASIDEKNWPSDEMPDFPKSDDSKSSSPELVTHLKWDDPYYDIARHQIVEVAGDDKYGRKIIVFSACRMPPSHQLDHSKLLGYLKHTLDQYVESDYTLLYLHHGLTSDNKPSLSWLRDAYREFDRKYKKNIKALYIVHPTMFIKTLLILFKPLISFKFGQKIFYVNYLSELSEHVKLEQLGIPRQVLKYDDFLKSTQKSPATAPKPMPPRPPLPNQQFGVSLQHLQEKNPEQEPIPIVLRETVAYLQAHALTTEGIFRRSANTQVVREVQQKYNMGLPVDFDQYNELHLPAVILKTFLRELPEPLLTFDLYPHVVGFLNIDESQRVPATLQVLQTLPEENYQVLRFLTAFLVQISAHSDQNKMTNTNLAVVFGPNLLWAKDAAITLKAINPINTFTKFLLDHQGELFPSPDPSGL
UniProt Q9Y587: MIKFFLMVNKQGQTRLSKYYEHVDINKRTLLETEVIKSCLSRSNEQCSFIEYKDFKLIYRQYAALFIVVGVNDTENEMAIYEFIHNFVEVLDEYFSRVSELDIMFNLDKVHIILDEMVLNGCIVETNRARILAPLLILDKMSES
UniProt Q8N6T3: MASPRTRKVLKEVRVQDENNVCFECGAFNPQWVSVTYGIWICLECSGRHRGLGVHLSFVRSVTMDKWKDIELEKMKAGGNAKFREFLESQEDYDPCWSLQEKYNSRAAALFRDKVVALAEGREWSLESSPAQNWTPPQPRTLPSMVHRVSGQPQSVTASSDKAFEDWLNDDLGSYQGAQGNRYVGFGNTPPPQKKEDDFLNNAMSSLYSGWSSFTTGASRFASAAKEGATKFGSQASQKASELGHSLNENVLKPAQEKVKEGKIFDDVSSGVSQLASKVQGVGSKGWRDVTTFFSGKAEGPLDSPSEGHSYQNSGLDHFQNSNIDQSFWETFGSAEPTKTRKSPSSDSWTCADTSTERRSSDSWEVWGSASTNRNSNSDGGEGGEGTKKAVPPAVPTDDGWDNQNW
UniProt P62330: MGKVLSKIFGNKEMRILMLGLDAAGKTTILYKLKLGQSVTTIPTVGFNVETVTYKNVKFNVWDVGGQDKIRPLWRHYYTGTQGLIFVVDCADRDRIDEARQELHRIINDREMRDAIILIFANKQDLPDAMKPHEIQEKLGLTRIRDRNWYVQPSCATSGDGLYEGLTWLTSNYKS
UniProt P78540: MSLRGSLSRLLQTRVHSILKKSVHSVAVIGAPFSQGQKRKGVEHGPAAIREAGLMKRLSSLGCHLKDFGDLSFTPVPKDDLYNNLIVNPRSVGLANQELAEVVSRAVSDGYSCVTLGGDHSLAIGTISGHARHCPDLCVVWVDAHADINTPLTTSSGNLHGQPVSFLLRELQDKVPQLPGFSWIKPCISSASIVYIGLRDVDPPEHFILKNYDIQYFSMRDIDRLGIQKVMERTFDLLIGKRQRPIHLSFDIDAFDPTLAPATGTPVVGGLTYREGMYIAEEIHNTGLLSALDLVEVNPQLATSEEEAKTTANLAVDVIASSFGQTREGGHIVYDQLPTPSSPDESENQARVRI
UniProt Q06481, whole entry, looked up: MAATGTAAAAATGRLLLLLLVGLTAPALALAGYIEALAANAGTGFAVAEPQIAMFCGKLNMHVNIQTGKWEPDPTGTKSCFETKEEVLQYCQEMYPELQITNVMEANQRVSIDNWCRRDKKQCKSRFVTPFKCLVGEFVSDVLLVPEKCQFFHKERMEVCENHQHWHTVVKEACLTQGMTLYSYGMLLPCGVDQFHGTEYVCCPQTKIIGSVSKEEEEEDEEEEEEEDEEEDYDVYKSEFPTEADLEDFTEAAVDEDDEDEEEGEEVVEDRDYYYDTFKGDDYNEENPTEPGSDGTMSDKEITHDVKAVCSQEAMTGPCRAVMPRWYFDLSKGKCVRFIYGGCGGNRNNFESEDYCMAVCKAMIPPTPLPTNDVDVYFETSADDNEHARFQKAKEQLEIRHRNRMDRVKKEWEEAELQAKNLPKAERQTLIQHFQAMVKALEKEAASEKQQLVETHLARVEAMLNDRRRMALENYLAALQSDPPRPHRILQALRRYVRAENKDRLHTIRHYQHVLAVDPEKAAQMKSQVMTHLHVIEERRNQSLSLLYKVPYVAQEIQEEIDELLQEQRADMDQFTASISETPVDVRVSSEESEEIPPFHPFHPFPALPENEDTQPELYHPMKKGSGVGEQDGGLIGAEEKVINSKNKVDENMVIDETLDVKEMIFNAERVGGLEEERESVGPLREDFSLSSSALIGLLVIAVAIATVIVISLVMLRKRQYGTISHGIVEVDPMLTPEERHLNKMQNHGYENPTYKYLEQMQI
UniProt Q9HDC9: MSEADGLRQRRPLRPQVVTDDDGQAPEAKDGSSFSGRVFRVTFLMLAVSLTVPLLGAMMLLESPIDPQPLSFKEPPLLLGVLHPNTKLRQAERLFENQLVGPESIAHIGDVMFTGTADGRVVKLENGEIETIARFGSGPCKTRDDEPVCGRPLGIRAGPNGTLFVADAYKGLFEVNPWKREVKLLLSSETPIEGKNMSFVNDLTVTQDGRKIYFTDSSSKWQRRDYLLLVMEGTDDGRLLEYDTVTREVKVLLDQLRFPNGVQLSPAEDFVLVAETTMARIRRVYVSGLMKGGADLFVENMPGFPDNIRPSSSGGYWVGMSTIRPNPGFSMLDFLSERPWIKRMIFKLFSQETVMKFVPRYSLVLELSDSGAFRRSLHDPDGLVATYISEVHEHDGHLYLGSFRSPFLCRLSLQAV
UniProt Q9NRY4: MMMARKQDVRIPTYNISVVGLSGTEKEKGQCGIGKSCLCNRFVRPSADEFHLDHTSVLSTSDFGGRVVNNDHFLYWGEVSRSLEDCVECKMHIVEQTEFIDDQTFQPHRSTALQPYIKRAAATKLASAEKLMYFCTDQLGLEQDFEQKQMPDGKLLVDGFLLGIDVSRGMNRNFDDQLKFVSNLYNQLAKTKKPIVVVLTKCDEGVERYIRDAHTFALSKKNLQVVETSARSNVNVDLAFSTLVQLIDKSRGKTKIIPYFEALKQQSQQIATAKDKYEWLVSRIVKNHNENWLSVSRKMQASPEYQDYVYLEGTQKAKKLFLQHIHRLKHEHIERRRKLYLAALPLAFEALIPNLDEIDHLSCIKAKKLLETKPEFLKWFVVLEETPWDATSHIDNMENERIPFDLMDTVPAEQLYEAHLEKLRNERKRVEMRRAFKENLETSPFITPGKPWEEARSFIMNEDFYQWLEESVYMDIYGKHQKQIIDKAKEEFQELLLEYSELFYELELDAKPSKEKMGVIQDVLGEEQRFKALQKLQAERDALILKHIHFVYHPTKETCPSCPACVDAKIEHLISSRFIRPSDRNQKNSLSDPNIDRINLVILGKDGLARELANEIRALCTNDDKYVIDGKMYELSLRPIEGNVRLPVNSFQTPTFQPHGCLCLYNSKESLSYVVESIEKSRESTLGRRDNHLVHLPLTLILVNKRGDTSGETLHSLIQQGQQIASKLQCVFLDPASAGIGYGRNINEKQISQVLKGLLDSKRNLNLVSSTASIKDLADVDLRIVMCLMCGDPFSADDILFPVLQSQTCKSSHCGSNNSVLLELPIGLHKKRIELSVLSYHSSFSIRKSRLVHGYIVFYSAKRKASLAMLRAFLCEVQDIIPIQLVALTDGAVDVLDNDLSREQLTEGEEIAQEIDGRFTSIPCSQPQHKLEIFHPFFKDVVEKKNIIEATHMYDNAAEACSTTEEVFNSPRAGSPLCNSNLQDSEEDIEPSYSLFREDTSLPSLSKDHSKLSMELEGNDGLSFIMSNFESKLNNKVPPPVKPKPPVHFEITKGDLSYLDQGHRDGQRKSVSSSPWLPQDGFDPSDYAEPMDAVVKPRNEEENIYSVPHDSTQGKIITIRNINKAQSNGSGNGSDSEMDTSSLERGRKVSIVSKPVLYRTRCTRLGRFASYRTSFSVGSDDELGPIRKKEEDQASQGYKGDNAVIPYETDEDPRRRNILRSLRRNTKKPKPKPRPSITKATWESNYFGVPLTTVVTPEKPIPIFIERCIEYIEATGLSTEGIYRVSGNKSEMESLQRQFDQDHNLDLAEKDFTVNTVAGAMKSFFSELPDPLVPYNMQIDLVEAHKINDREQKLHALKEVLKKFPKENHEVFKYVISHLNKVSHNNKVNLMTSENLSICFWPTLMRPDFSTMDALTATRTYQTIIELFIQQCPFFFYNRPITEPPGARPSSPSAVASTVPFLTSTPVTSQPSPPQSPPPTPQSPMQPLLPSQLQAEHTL
UniProt Q13510, whole entry, looked up: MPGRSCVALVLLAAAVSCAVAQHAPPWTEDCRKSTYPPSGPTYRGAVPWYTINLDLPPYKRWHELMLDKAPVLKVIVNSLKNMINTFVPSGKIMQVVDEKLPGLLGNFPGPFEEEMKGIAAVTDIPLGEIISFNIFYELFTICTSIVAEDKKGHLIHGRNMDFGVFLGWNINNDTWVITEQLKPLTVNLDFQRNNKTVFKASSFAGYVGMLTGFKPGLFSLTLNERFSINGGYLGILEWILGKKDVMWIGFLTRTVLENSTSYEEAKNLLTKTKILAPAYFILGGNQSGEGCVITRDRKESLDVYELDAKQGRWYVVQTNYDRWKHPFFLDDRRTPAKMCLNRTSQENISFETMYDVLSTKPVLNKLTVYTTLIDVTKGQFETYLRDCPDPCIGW

Legend:
Assay in all cases: log2 fold change, soluble protein after heating vs DMSO (PISA); higher = thermal stabilisation; K562 lysate, 10 uM; active = over 0.2 and 3.5 SD of the protein, either way, in both replicates (recomputed)
alvocidib = compound: CN1CC[C@H](c2c(O)cc(O)c3c(=O)cc(-c4ccccc4Cl)oc23)[C@H](O)C1 [alvocidib]
Outline: (§1)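 To prepare the extract, K562 pellets were dounce-homogenised in PBS pH 7.4 with 1 mM MgCl2, giving crude material at 1 mg/mL protein. This was treated with 10 μM compound for 30 min, then heated in aliquots for 3 min over 48°C-58°C before pooling and addition of NP-40 to 0.5% at 4°C. Centrifugation at 21,000xg for 90 min left soluble protein in the supernatant, which TMTpro 16plex LC-MS/MS quantified with equalised channel sums. Results are log-two fold changes in thermal stability compared with solvent controls, from duplicates.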

Tubastatin A = compound: CN1CCc2c(c3ccccc3n2Cc2ccc(C(=O)NO)cc2)C1 [Tubastatin A]
Outline: as §1

[1] = compound: CNC(=O)C1=CC=CC=C1NC2=NC(=NC=C2Cl)NC3=C(C=C(C=C3)N4CCOCC4)OC
Outline: as §1

defactinib = compound: CNC(=O)c1ccc(Nc2ncc(C(F)(F)F)c(NCc3nccnc3N(C)S(C)(=O)=O)n2)cc1 [defactinib]
Outline: as §1

[2] = compound: CNc1nc(-c2ccc3c(N)n[nH]c3c2)cc(N2C[C@@H](C(=O)NC3CCCCC3)CC[C@H]2C)n1
Outline: as §1

encorafenib = compound: COC(=O)N[C@@H](C)CNc1nccc(-c2cn(C(C)C)nc2-c2cc(Cl)cc(NS(C)(=O)=O)c2F)n1 [encorafenib]
Outline: as §1

[3] = compound: COC(=O)[C@H](CCSC)NC(=O)C1=C(C=C(C=C1)NC[C@H](CS)N)C2=CC=CC=C2
Outline: as §1

alisertib = compound: COc1cc(Nc2ncc3c(n2)-c2ccc(Cl)cc2C(c2c(F)cccc2OC)=NC3)ccc1C(=O)O [alisertib]
Outline: as §1

[4] = compound: COc1cc2nc(-c3cc(F)ccc3O)nc(N[C@@H]3CNC[C@H]3C(C)(C)O)c2cc1OC
Outline: as §1

gefitinib = compound: COc1cc2ncnc(Nc3ccc(F)c(Cl)c3)c2cc1OCCCN1CCOCC1 [gefitinib]
Outline: as §1

lapatinib = compound: CS(=O)(=O)CCNCc1ccc(-c2ccc3ncnc(Nc4ccc(OCc5cccc(F)c5)c(Cl)c4)c3c2)o1 [lapatinib]
Outline: as §1

pictilisib = compound: CS(=O)(=O)N1CCN(Cc2cc3nc(-c4cccc5[nH]ncc45)nc(N4CCOCC4)c3s2)CC1 [pictilisib]
Outline: as §1

crizotinib = compound: C[C@@H](Oc1cc(-c2cnn(C3CCNCC3)c2)cnc1N)c1c(Cl)ccc(F)c1Cl [crizotinib]
Outline: as §1

[5] = compound: C[C@H](C1=CC=C(C=C1)C(=O)NC2=C3C=CNC3=NC=C2)N
Outline: as §1

duvelisib = compound: C[C@H](Nc1ncnc2nc[nH]c12)c1cc2cccc(Cl)c2c(=O)n1-c1ccccc1 [duvelisib]
Outline: as §1

gandotinib = compound: Cc1cc(Nc2cc(CN3CCOCC3)c3nc(C)c(Cc4ccc(Cl)cc4F)n3n2)n[nH]1 [gandotinib]
Outline: as §1

tozasertib = compound: Cc1cc(Nc2cc(N3CCN(C)CC3)nc(Sc3ccc(NC(=O)C4CC4)cc3)n2)n[nH]1 [tozasertib]
Outline: as §1

doramapimod = compound: Cc1ccc(-n2nc(C(C)(C)C)cc2NC(=O)Nc2ccc(OCCN3CCOCC3)c3ccccc23)cc1 [doramapimod]
Outline: as §1

bafetinib = compound: Cc1ccc(NC(=O)c2ccc(CN3CC[C@H](N(C)C)C3)c(C(F)(F)F)c2)cc1Nc1nccc(-c2cncnc2)n1 [bafetinib]
Outline: as §1

[6] = compound: Cc1cccc(CC(=O)N2CCc3c2ccc(-c2cn(C)c4ncnc(N)c24)c3F)n1
Outline: as §1

Measured: log2 fold change

ARPC4 isoform 3 (UniProt P59998)
inactive: alvocidib 0.005 | Tubastatin A 0.045 | [1] -0.023 | defactinib 0.033 | [2] 0.002 | encorafenib 0.026 | [3] -0.009 | alisertib 0.015 | [4] -0.007 | gefitinib -0.004 | lapatinib -0.011 | pictilisib 0.01 | crizotinib 0.042 | [5] 0.018 | duvelisib 0 | gandotinib -0.009 | tozasertib 0.024 | doramapimod 0.003 | bafetinib 0.007 | [6] -0.031

ARF4 (UniProt P18085)
inactive: alvocidib -0.073 | Tubastatin A -0.004 | [1] 0.005 | defactinib 0.017 | [2] 0.112 | encorafenib 0.035 | [3] 0.159 | alisertib -0.025 | [4] 0.014 | gefitinib 0.025 | lapatinib 0.012 | pictilisib 0.003 | crizotinib -0.032 | [5] -0.121 | duvelisib 0.05 | gandotinib 0.078 | tozasertib 0.053 | doramapimod 0.189 | bafetinib -0.019 | [6] 0.1

ARF5 (UniProt P84085)
inactive: alvocidib -0.043 | Tubastatin A 0.069 | [1] 0.06 | defactinib 0.026 | [2] 0.061 | encorafenib 0.013 | [3] -0.001 | alisertib 0.019 | [4] -0.011 | gefitinib -0.028 | lapatinib 0.018 | pictilisib 0.034 | crizotinib 0.019 | [5] -0.076 | duvelisib 0.011 | gandotinib 0.075 | tozasertib -0.008 | doramapimod 0.144 | bafetinib 0.014 | [6] 0.025

ARHGEF12 (UniProt Q9NZN5)
inactive: alvocidib -0.098 | Tubastatin A -0.015 | [1] 0.038 | defactinib -0.007 | [2] -0.012 | encorafenib 0.007 | [3] 0.05 | alisertib -0.013 | [4] 0.013 | gefitinib 0.043 | lapatinib -0.008 | pictilisib -0.011 | crizotinib 0.021 | [5] -0.151 | duvelisib 0.02 | gandotinib 0.065 | tozasertib -0.011 | doramapimod 0.021 | bafetinib -0.042 | [6] 0.119

ARHGAP1 (UniProt Q07960)
inactive: alvocidib -0.01 | Tubastatin A 0.101 | [1] 0.023 | defactinib 0 | [2] 0.002 | encorafenib -0.018 | [3] 0 | alisertib 0.014 | [4] 0.045 | gefitinib -0.004 | lapatinib -0.003 | pictilisib 0.018 | crizotinib 0.071 | [5] -0.037 | duvelisib -0.003 | gandotinib 0.05 | tozasertib -0.049 | doramapimod -0.009 | bafetinib 0.014 | [6] -0.02

AP4S1 (UniProt Q9Y587)
inactive: alvocidib 0.004 | Tubastatin A -0.107 | [1] -0.046 | defactinib -0.062 | [2] -0.096 | encorafenib 0.001 | [3] -0.039 | alisertib -0.081 | [4] 0.01 | gefitinib 0.042 | lapatinib 0.028 | pictilisib -0.014 | crizotinib 0.014 | [5] 0.025 | duvelisib -0.102 | gandotinib -0.064 | tozasertib -0.004 | doramapimod -0.043 | bafetinib 0.004 | [6] 0.004

ARPC1B (UniProt O15143)
inactive: alvocidib 0.02 | Tubastatin A 0.018 | [1] -0.014 | defactinib 0.002 | [2] -0.035 | encorafenib -0.002 | [3] -0.01 | alisertib -0.061 | [4] -0.012 | gefitinib -0.071 | lapatinib 0.036 | pictilisib 0.042 | crizotinib 0.02 | [5] 0.033 | duvelisib 0.031 | gandotinib -0.017 | tozasertib -0.001 | doramapimod 0.004 | bafetinib 0.068 | [6] -0.027

Quoted from the entries so far (4 entries):
ARHGEF12 (UniProt Q9NZN5)
inactive: alvocidib -0.098 | Tubastatin A -0.015 | [1] 0.038 | defactinib -0.007 | [2] -0.012 | encorafenib 0.007 | [3] 0.05 | alisertib -0.013 | [4] 0.013 | gefitinib 0.043 | lapatinib -0.008 | pictilisib -0.011 | crizotinib 0.021 | [5] -0.151 | duvelisib 0.02 | gandotinib 0.065 | tozasertib -0.011 | doramapimod 0.021 | bafetinib -0.042 | [6] 0.119

ARHGAP1 (UniProt Q07960)
inactive: alvocidib -0.01 | Tubastatin A 0.101 | [1] 0.023 | defactinib 0 | [2] 0.002 | encorafenib -0.018 | [3] 0 | alisertib 0.014 | [4] 0.045 | gefitinib -0.004 | lapatinib -0.003 | pictilisib 0.018 | crizotinib 0.071 | [5] -0.037 | duvelisib -0.003 | gandotinib 0.05 | tozasertib -0.049 | doramapimod -0.009 | bafetinib 0.014 | [6] -0.02

AP4S1 (UniProt Q9Y587)
inactive: alvocidib 0.004 | Tubastatin A -0.107 | [1] -0.046 | defactinib -0.062 | [2] -0.096 | encorafenib 0.001 | [3] -0.039 | alisertib -0.081 | [4] 0.01 | gefitinib 0.042 | lapatinib 0.028 | pictilisib -0.014 | crizotinib 0.014 | [5] 0.025 | duvelisib -0.102 | gandotinib -0.064 | tozasertib -0.004 | doramapimod -0.043 | bafetinib 0.004 | [6] 0.004

ARPC1B (UniProt O15143)
inactive: alvocidib 0.02 | Tubastatin A 0.018 | [1] -0.014 | defactinib 0.002 | [2] -0.035 | encorafenib -0.002 | [3] -0.01 | alisertib -0.061 | [4] -0.012 | gefitinib -0.071 | lapatinib 0.036 | pictilisib 0.042 | crizotinib 0.02 | [5] 0.033 | duvelisib 0.031 | gandotinib -0.017 | tozasertib -0.001 | doramapimod 0.004 | bafetinib 0.068 | [6] -0.027

Further results follow.

ARFGAP1 (UniProt Q8N6T3)
active: gandotinib 1.08
inactive: alvocidib -0.001 | Tubastatin A -0.008 | [1] 0.105 | defactinib 0.115 | [2] 0.025 | encorafenib 0.355 | [3] -0.054 | alisertib 0.245 | [4] 0.097 | gefitinib 0.209 | lapatinib 0.002 | pictilisib 0.175 | crizotinib 0.031 | [5] -0.077 | duvelisib -0.054 | tozasertib -0.011 | doramapimod 0.202 | bafetinib -0.157 | [6] 0.202

ARF6 (UniProt P62330)
inactive: alvocidib -0.043 | Tubastatin A 0.055 | [1] -0.015 | defactinib -0.009 | [2] -0.022 | encorafenib 0.018 | [3] 0.035 | alisertib 0.006 | [4] 0.038 | gefitinib 0.055 | lapatinib 0.04 | pictilisib -0.006 | crizotinib 0.056 | [5] -0.09 | duvelisib 0.012 | gandotinib 0.055 | tozasertib 0.064 | doramapimod 0.057 | bafetinib 0.004 | [6] 0.047

ARG2 (UniProt P78540)
inactive: alvocidib 0.009 | Tubastatin A 0.099 | [1] -0.025 | defactinib -0.081 | [2] 0.047 | encorafenib -0.022 | [3] -0.052 | alisertib 0.037 | [4] 0.009 | gefitinib 0.064 | lapatinib 0.004 | pictilisib -0.056 | crizotinib -0.031 | [5] -0.012 | duvelisib 0.069 | gandotinib 0.044 | tozasertib -0.01 | doramapimod -0.006 | bafetinib -0.029 | [6] -0.014

APLP2 (UniProt Q06481)
inactive: alvocidib -0.005 | Tubastatin A 0.059 | [1] -0.002 | defactinib -0.017 | [2] -0.14 | encorafenib -0.017 | [3] -0.059 | alisertib 0.018 | [4] 0.029 | gefitinib -0.017 | lapatinib -0.05 | pictilisib -0.018 | crizotinib -0.001 | [5] 0.021 | duvelisib -0.016 | gandotinib 0.017 | tozasertib 0.007 | doramapimod 0.008 | bafetinib -0.084 | [6] -0.033

APMAP (UniProt Q9HDC9)
inactive: alvocidib -0.023 | Tubastatin A 0.025 | [1] -0.018 | defactinib -0.04 | [2] -0.047 | encorafenib 0.063 | [3] -0.05 | alisertib -0.002 | [4] 0.006 | gefitinib 0.019 | lapatinib -0.017 | pictilisib -0.018 | crizotinib 0.002 | [5] 0.021 | duvelisib -0.023 | gandotinib 0.013 | tozasertib 0.028 | doramapimod -0.016 | bafetinib 0.014 | [6] -0.05

ARHGAP35 (UniProt Q9NRY4)
inactive: alvocidib -0.017 | Tubastatin A -0.041 | [1] 0.02 | defactinib 0.023 | [2] -0.011 | encorafenib 0.006 | [3] 0.014 | alisertib 0.021 | [4] 0 | gefitinib -0.019 | lapatinib -0.036 | pictilisib -0.009 | crizotinib -0.016 | [5] 0.001 | duvelisib -0.016 | gandotinib -0.054 | tozasertib 0.012 | doramapimod 0.011 | bafetinib -0.064 | [6] 0.08

ARCN1 (UniProt P48444)
inactive: alvocidib -0.001 | Tubastatin A 0.038 | [1] -0.019 | defactinib -0.007 | [2] -0.02 | encorafenib -0.002 | [3] 0.013 | alisertib 0.018 | [4] -0.005 | gefitinib 0.003 | lapatinib -0.001 | pictilisib 0.004 | crizotinib 0.004 | [5] -0.001 | duvelisib 0.015 | gandotinib -0.02 | tozasertib -0.004 | doramapimod 0.012 | bafetinib -0.004 | [6] 0.001

ASAH1 isoform 2 (UniProt Q13510)
inactive: alvocidib 0.044 | Tubastatin A -0.015 | [1] 0.006 | defactinib 0.028 | [2] -0.027 | encorafenib 0.082 | [3] -0.032 | alisertib -0.007 | [4] 0.009 | gefitinib -0.074 | lapatinib 0.022 | pictilisib 0.073 | crizotinib -0.02 | [5] -0.125 | duvelisib 0.016 | gandotinib 0.156 | tozasertib -0.095 | doramapimod -0.032 | bafetinib -0.045 | [6] -0.026

APOL2 (UniProt J3KQL8)
inactive: alvocidib -0.023 | Tubastatin A -0.074 | [1] -0.038 | defactinib -0.286 | [2] -0.202 | encorafenib 0.051 | [3] -0.176 | alisertib -0.102 | [4] -0.017 | gefitinib 0.057 | lapatinib 0.059 | pictilisib -0.013 | crizotinib 0.035 | [5] -0.016 | duvelisib -0.001 | gandotinib -0.3 | tozasertib -0.128 | doramapimod -0.134 | bafetinib 0.146 | [6] 0.022
